PubChem BioAssay AID1347076 (National Center for Advancing Translational Sciences (NCATS), 2019)
Among all 400,000 compounds or so, about 13,000 (3.2%) were called active. Inconclusive results, whose numbers are uncertain, are shown with a selection of clear calls. The call rests on the fitted dose curve; in most records, active means well fitted cell-killing curve with a large enough effect; inconclusive means small, poorly fitted or top-dose-only effect, or effect the other way; inactive means flat fitted curve, though single readings scatter. A potency beside an inconclusive call is a rough fit, not a confirmed value.

test: qHTS assay for MDR1-selective chemotherapeutics: Primary screen using the drug-selected MDR subline cells KB-V1; conditions: KB-V1 MDR cells viability, CellTiter-Glo, 72 h; activity change, negative = cytotoxicity: at 46.1 µM (top of the series); further: nearly all actives have a fitted effect of over 60% in size
How it was run: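 Cells of the MDR subline KB-V1 are plated, dosed with compound at multiple concentrations, and incubated 72 h at 37 degrees C; CellTiter-Glo is then added and luminescence read after 10 min.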
On the % scale 0 is the no-effect control and ±100 the full control effect; potency means the concentration at half of the fitted maximal effect.

| SMILES | Potency | activity change, negative = cytotoxicity |
| --- | --- | --- |
| CC1=Nc2ccccc2/C1=C\c1sc(Nc2ccc(C)cc2)nc1O | active: 1.46 µM | – |
| O=C(c1cc([N+](=O)[O-])ccc1N1CCCCC1)N1CCCC1 | inconclusive: 11.6 µM [cytotoxic, partial curve, poor fit] | – |
| COc1ccc(-c2noc(N3CCC(C(=O)N4CCN(c5ccccn5)CC4)CC3)n2)cc1 | active: 5.8 µM | – |
| CC1(C)Cc2ccccc2-c2nnc(-c3ccc4ccccc4n3)n21 | inconclusive: 20.6 µM [cytotoxic, partial curve, poor fit] | – |
| COCc1c(C(=O)NCc2ccccc2CN2CCCC2)oc2ccccc12 | – | inactive: -17.3% |
| CC(C)(C)c1ccc(C(=O)NCC(=O)NNC(=O)c2ccccc2O)cc1 | inconclusive: 14.6 µM [cytotoxic, partial curve, poor fit] | – |
| COc1c(Cl)cc(C(=O)Nc2ccccc2-c2ccccc2)cc1Cl | active: 14.6 µM | – |
| O=C(Nc1cccn(Cc2c(F)cccc2Cl)c1=O)NC1CCCCC1 | inconclusive: 4.11 µM [cytotoxic, partial curve] | – |
| COCCNC(=O)c1cnn2c(C(F)(F)F)cc(-c3ccc(C)cc3)nc12 | – | inactive: 1.97% |
| O=C(NCc1ccc(Cl)cc1)C1CCCN1C(=O)Nc1ccc(F)cc1 (stereo not given) | – | inactive: -13% |
| Cc1c(Cl)cccc1NC(=O)CNC(=O)C1CCN(C(=O)Nc2ccccc2)CC1 | inconclusive: 29.1 µM [rising, single point] | – |
| CC(NC(=O)CN1CCOCC1)c1ccccc1 (stereo not given) | – | inactive: 19.6% |
| COc1ccc(-c2nnc3n2-c2ccccc2SC3)cc1OC | inconclusive: 14.6 µM [cytotoxic, single point] | – |
| O=C(COC(=O)c1ccc(Cl)nc1)Nc1nnc(-c2ccccc2)o1 | active: 14.6 µM | – |
| C=CCn1c(SC(C)C#N)nc2sc(CC)cc2c1=O (stereo not given) | inconclusive: 20.6 µM [rising, single point] | – |
| O=C(NCc1cccnc1)Nc1ccc(Br)cc1 | – | inactive: 25.9% |
| CN1CCN(c2ccc(Nc3c4ccccc4nc4ccccc34)cc2)CC1 | active: 23.1 µM | – |
| CC1OC(CCc2cccc(Cl)c2)Cc2[nH]c(=S)[nH]c(=O)c21 (stereo not given) | inconclusive: 18.4 µM [cytotoxic, partial curve] | – |
| CCOC(=O)C1=C(C)N=c2s/c(=C\c3ccc(OC(C)=O)cc3)c(=O)n2C1/C=C/c1ccccc1 (stereo not given) | inconclusive: 18.4 µM [cytotoxic, single point] | – |
| CCc1ccc(NC(=O)N(Cc2ccco2)C(C)c2cccs2)cc1 (stereo not given) | active: 20.6 µM | – |
| CC12CCC(C(=O)NNc3ccc([N+](=O)[O-])cc3)(OC1=O)C2(C)C (stereo not given) | inconclusive: 25.9 µM [rising, single point] | – |
| Cc1cc(C)c(OCC(=O)NCC(C)(C)N2CCOCC2)c(C)c1 | inconclusive: 4.11 µM [cytotoxic, full curve, poor fit] | – |
| Cc1ccc(N(C(=O)c2snc(C(N)=O)c2N)C(C(=O)NCc2ccccc2)c2ccncc2)c(C)c1 (stereo not given) | – | inactive: -6.43% |
| COc1ccc(OC)c(NC(=O)COC(=O)CCc2nc3ccccc3c(=O)[nH]2)c1 | inconclusive: 29.1 µM [rising, single point] | – |

Complete entries as entered above.
COc1ccc(-c2nnc3n2-c2ccccc2SC3)cc1OC is listed with Potency: inconclusive: 14.6 µM [cytotoxic, single point]
O=C(c1cc([N+](=O)[O-])ccc1N1CCCCC1)N1CCCC1 is listed with Potency: inconclusive: 11.6 µM [cytotoxic, partial curve, poor fit]
O=C(NCc1ccc(Cl)cc1)C1CCCN1C(=O)Nc1ccc(F)cc1 (stereo not given) is listed with activity change, negative = cytotoxicity: inactive: -13%
O=C(Nc1cccn(Cc2c(F)cccc2Cl)c1=O)NC1CCCCC1 is listed with Potency: inconclusive: 4.11 µM [cytotoxic, partial curve]

Next structures

| SMILES | Potency | activity change, negative = cytotoxicity |
| --- | --- | --- |
| Cc1noc(C)c1C(=O)OC(C)C(=O)Nc1ccc(C(N)=O)cc1 (stereo not given) | – | inactive: 11.8% |
| Cc1cccc(NC(=O)c2ccc(C(=O)Nc3cccc(C)c3)nc2)c1 | inconclusive: 23.1 µM [cytotoxic, partial curve, poor fit] | – |
| CC(=O)c1cccc(OCC(=O)N(Cc2ccco2)c2c(N)n(Cc3ccccc3)c(=O)[nH]c2=O)c1 | inconclusive: 29.1 µM [cytotoxic, single point] | – |
| COc1cc(C(=O)NC(C)c2ccccc2)ccc1OCC(=O)N1CCOCC1 (stereo not given) | – | inconclusive: 33.6% |
| COc1ccccc1C(=O)Nc1ncc2c(n1)CC(c1ccco1)CC2=O (stereo not given) | – | inactive: -4.89% |
| O=[N+]([O-])c1cc(Cl)ccc1N1CCN(c2ccccc2O)CC1 | inconclusive: 29.1 µM [cytotoxic, single point] | – |
| CC(=O)c1cccc(S(=O)(=O)N2CCC(C(=O)Oc3ccc(-c4nnco4)cc3)CC2)c1 | – | inactive: 0% |
| Cc1cc(C)c(NS(=O)(=O)c2ccc(-c3cnc(C4CC4)o3)cc2)c(C)c1 | active: 2.06 µM | – |
| CCOC(=O)c1c(C)nc2c(c1C)/C(=N/O)CC(C)(C)C2 | inconclusive: 18.4 µM [cytotoxic, single point] | – |
| CCN1CCN(c2ccc(NC(=O)c3cccc(OCc4ccccc4)c3)cc2)CC1 | – | inconclusive: -63.7% |
| CCCCCCCCN1C(=O)[C@H](CC(=O)N2CCCCC2)C[C@@]2(C(=O)OCC)CCCC=C12 | inconclusive: 10.3 µM [cytotoxic, partial curve] | – |
| CCOc1ccc(C2=Nn3c(nnc3-c3ccco3)SC2)cc1 | inconclusive: 29.1 µM [cytotoxic, single point] | – |
| COc1ccc(C(=O)c2ccc(CC#N)s2)cc1 | inconclusive: 29.1 µM [cytotoxic, single point] | – |
| OC(COc1ccc2c(c1)OCO2)CN1CCN(c2ccccc2)CC1 (stereo not given) | inconclusive: 20.6 µM [cytotoxic, single point] | – |
| CCN(CC(=O)Nc1cc(Cl)ccc1C)C(=O)CSCc1ccc(C)cc1 | inconclusive: 9.2 µM [cytotoxic, partial curve, poor fit] | – |
| COc1ccc(CNC(=O)CCCN2C(=O)CSc3c2c(C)nn3-c2ccccc2)c(OC)c1 | inconclusive: 29.1 µM [cytotoxic, single point] | – |
| CCSc1nnc2c(n1)OC(c1ccc(C)cc1)N(C(C)=O)c1ccccc1-2 (stereo not given) | inconclusive: 29.1 µM [cytotoxic, single point] | – |
| O=C(Nc1ccc(O)c(-c2nc3ccccc3o2)c1)C1(c2ccccc2)CCCC1 | inconclusive: 13 µM [cytotoxic, partial curve, poor fit] | – |
| COCCNC(=O)CCC(=O)N1Cc2cccc(OC)c2Oc2ncccc21 | – | inactive: -4.89% |
| O=C(NCCN1CCN(c2ccccc2F)CC1)C1CCCN(S(=O)(=O)c2cnc[nH]2)C1 (stereo not given) | – | inactive: 23.3% |
| COc1cc(NC(=S)NC(=O)c2ccccc2C)ccc1NC(=O)c1cccs1 | – | inactive: 2.37% |
| COc1ccc(CCNC(=O)c2cc(S(=O)(=O)N(C)c3ccccc3)ccc2Cl)cc1 | inconclusive: 8.2 µM [cytotoxic, partial curve, poor fit] | – |
| Cc1cn(C2CCCO2)c(=O)nc1N (stereo not given) | inconclusive: 2.91 µM [rising, full curve] | – |
| O=c1c(-c2nnc(SCc3ccc(Cl)cc3Cl)o2)cccn1Cc1ccccc1 | active: 2.91 µM | – |

| SMILES | Potency | activity change, negative = cytotoxicity |
| --- | --- | --- |
| O=C(Nc1ccc(N2CCOCC2)cc1)C1CCN(S(=O)(=O)c2ccccc2F)CC1 | inconclusive: 20.6 µM [cytotoxic, single point] | – |
| Cc1c(C(=O)N(Cc2nnc(-c3ccccc3Cl)o2)C2CC2)oc2ccccc12 | inconclusive: 18.4 µM [cytotoxic, single point] | – |
| Cc1cccc(OCC(=O)Nc2ccccc2N2CCN(C)CC2)c1 | inconclusive: 29.1 µM [cytotoxic, single point] | – |
| CCCSc1nnc(Sc2nnnn2-c2ccccc2)s1 | active: 13 µM | – |
| CCC(=Nc1ccc(Cc2ccncc2)cc1)c1c(O)n(C)c(=O)n(C)c1=O | – | inactive: -9.41% |
| Cc1ccc(NS(=O)(=O)c2ccc3c(c2)NC(=O)C(C)C(=O)N3)c(Cl)c1 (stereo not given) | inconclusive: 0.0103 µM [rising, full curve] | – |
| Cc1cccc(NC(=O)CNC(=O)c2cc(C3CC3)nn2-c2ccccc2)c1C | inconclusive: 14.6 µM [cytotoxic, partial curve, poor fit] | – |
| Cc1nc2c(-c3ccccc3)c(C)[nH]n2c(=O)c1Cc1ccccc1 | inconclusive: 13 µM [cytotoxic, partial curve] | – |
| Nc1ncnc(N2CCOCC2)n1 | – | inactive: -6.76% |
| CCN(CC)CCN(C(=O)c1ccc(S(=O)(=O)N(C)C2CCCCC2)cc1)c1nc2c(C)cccc2s1 | inconclusive: 5.17 µM [cytotoxic, partial curve] | – |
| O=C(CSc1ncnc2c1cnn2-c1ccccc1Cl)N1CCN(C(=O)c2ccco2)CC1 | inconclusive: 29.1 µM [cytotoxic, single point] | – |
| COc1cccc(OC)c1C(=O)N1CCN(S(=O)(=O)c2ccccc2)CC1 | – | inactive: -4.66% |
| COc1ccc(C(=O)Nc2nc3c(s2)CCCC3)cc1S(=O)(=O)N1CCCc2ccccc21 | active: 5.17 µM | – |
| O=C1NC[C@H](CCCCN2C[C@H](Cc3ccc(O)cc3)N(CC3CCCCC3)C(=O)C2=O)N(CC2CCCCC2)C1=O | inconclusive: 23.1 µM [rising, single point] | – |
| COc1ccc(C(=O)O)cc1NC(=S)NC(=O)CSc1ccc(Cl)cc1 | – | inactive: -2.13% |
| CCOc1ccc(N(CC(=O)NC2CCCC2)S(=O)(=O)c2c(C)[nH]c(=O)[nH]c2=O)cc1 | inconclusive: 29.1 µM [rising, single point] | – |
| Cc1ccc(CN2CCSc3ccc(C(=O)NCCc4ccccc4)cc32)cc1 | – | inactive: 0% |
| COc1ccc(C(=O)Nc2ccc(OCC(F)(F)C(F)F)c(C(F)(F)F)c2)cc1OC | inconclusive: 22.4 µM [cytotoxic, single point] | – |
| O=C(Nc1nnc(SCc2ccc(F)cc2)s1)c1ccc2ncsc2c1 | inconclusive: 16.4 µM [cytotoxic, single point] | – |
| CC(C)(C)c1ccc(-c2nnc(SCC(=O)O)n2N)cc1 | inconclusive: 29.1 µM [rising, single point] | – |
| CCc1cccc(C)c1NC(=O)CCCSc1nc2ccccc2s1 | inconclusive: 29.1 µM [cytotoxic, single point] | – |
| Cc1sc2nc(SCc3nnc(-c4cccs4)o3)n(C3CCCC3)c(=O)c2c1C | active: 20.6 µM | – |
